According to paper PMC8604998:
Results are given in words; binding and its absence hold for the method and conditions named. In cells and extracts the contact can be indirect. Some results given as binding are weak or reduced against the parent protein; the word gives no strength.

The chains behind the UniProt entries cited, without tags or fusion partners.
UniProt Q9UJY4: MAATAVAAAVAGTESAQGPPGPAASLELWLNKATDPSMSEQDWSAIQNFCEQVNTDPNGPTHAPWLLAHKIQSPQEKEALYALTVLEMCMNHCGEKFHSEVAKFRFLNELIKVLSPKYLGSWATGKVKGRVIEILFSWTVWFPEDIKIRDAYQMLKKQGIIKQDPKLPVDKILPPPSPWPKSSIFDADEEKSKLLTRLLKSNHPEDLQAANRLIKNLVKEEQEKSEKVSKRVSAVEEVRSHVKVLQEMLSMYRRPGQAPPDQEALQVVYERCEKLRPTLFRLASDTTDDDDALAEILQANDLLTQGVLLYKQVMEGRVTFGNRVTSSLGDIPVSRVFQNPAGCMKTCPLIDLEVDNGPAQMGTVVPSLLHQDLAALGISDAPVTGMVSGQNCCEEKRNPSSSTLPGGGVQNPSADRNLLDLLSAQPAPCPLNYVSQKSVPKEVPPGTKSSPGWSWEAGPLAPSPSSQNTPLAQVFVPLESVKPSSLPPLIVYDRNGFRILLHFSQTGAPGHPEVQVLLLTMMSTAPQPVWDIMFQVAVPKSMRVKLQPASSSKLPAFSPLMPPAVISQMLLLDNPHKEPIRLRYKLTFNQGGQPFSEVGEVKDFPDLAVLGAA

Legend:
[1] = target: epidermal growth factor receptor (EGFR), endogenous in ARPE-19 cells (human (endogenous in ARPE-19)) (UniProt P00533); assay: proximity ligation; PLA in fixed ARPE-19 and H1975 cells with pairs of antibodies (anti-γ1-adaptin or anti-GGA2 with anti-EGFR; AP-1 with CIMPR, β-COP or Sec24B); also after EGF treatment and in cells transfected with GFP-Rab11a or GFP-Rab5a
[2] = target: epidermal growth factor receptor (EGFR), endogenous in ARPE-19 cells (human (endogenous in ARPE-19)) (UniProt P00533); assay: co-IP; ARPE-19 and H1975 lysates (PBS, 1% Triton X-100); sepharose beads conjugated with anti-EGFR or control IgG, 20-24 h at 4 °C, six washes; western blotting of bound proteins
[3] = target: epidermal growth factor receptor (EGFR) L858R/T790M, endogenous in H1975 cells (human (endogenous in H1975)) (UniProt P00533); assay: as above

Measured: binding

Golgi-localized, γ-adaptin ear-containing, ADP ribosylation factor-binding protein 2 (GGA2) (from UniProt Q9UJY4 1-613)
binds: all assays above
